Patent publication US20250049873A1, “COMPOSITION FOR PREVENTING, AMELIORATING OR TREATING RESPIRATORY DISEASE COMPRISING LYSIMACHIA MAURITIANA EXTRACT AS EFFECTIVE COMPONENT” (KOREA INSTITUTE OF ORIENTAL MEDICINE, priority 2021, published 2025)
“Also recorded” adds a separate entry of the source. For at least one compound, name, drawing or mass did not settle the structure.

Legend:
[1] = tested on: human bronchial epithelial cell line BEAS-2B; experiment: Inhibition of TNF-α-induced RANTES secretion in bronchial epithelial cells (ELISA); assay type: cell-based; settings: 10 ng/ml TNF-α, 24 hours, extract 100 or 200 μg/ml, Dexa 0.5 μM, vs TNF-α treatment group
[2] = tested on: BALB/c mice with respiratory damage induced by particulate matter complex (PM10D); experiment: Total BAL cell, lung cell and BAL neutrophil counts in model of respiratory damage induced by particulate matter complex (PM10D); assay type: in vivo; settings: extract 50 or 100 mg/kg, dexamethasone 3 mg/kg, oral every day; vs PM10D control group
[3] = tested on: BALB/c mice with respiratory damage induced by particulate matter complex (PM10D); experiment: Immunofluorescence cell staining (FACS) of BAL and lung cells in PM10D respiratory damage model; assay type: in vivo; settings: extract 50 or 100 mg/kg, dexamethasone 3 mg/kg, oral every day, vs PM10D control group
[4] = tested on: BALB/c mice with respiratory damage induced by particulate matter complex (PM10D); experiment: ELISA of IL-1α, TNF-α, IL-17, MIP2 and CXCL-1 in BALF in PM10D respiratory damage model; assay type: in vivo; settings: extract 50 or 100 mg/kg, dexamethasone 3 mg/kg, oral every day, vs PM10D control group
[5] = tested on: BALB/c mice with respiratory damage induced by particulate matter complex (PM10D); experiment: Gene expression level of TNF-α, MIP2, CXCL-1 and MUC5AC in lung tissue (real-time PCR) in PM10D respiratory damage model; assay type: in vivo; settings: G3PDH internal standard, extract 50 or 100 mg/kg, dexamethasone 3 mg/kg, oral every day, vs PM10D control group
[6] = tested on: BALB/c mice with respiratory damage induced by particulate matter complex (PM10D); experiment: Histopathological examination of lung tissue (H&E, M-T staining) in PM10D respiratory damage model; assay type: in vivo; settings: extract 50 or 100 mg/kg, dexamethasone 3 mg/kg, oral every day, vs PM10D control group

C[C@@H]1C[C@H]2[C@@H]3CCC4=CC(=O)C=C[C@]4(C)[C@@]3(F)[C@@H](O)C[C@]2(C)[C@@]1(O)C(=O)CO [dexamethasone]
production amount of RANTES [1]: statistically significant decrease (p<0.001); also recorded: statistically significantly decreased | number of neutrophils in BAL [2]: decreased | total number of cells in BAL [2]: decreased | total number of lung cells [2]: decreased | number of CD4+CD8+ immune cells in BAL [3]: decreased | number of Gr-1+CD11b+ granulocyte immune cells in the lung [3]: decreased | number of Gr-1+SiglecF- neutrophil immune cells in BAL [3]: decreased | number of Gr-1+SiglecF- neutrophil immune cells in the lung [3]: decreased | production amount of CXCL-1 in BALF [4]: decreased statistically significantly | production amount of IL-1α in BALF [4]: decreased statistically significantly | production amount of IL-17 in BALF [4]: decreased statistically significantly | production amount of MIP2 in BALF [4]: decreased statistically significantly | production amount of TNF-α in BALF [4]: decreased statistically significantly | gene expression of CXCL-1 in lung tissue [5]: significant decrease | gene expression of MIP2 in lung tissue [5]: significant decrease | gene expression of TNF-α in lung tissue [5]: significant decrease | gene expression of mucus protein MUC5AC in lung tissue [5]: significant decrease | number of inflammatory cells in lung tissue ([6]; H&E staining of lung tissue): decrease | wall of lung cells ([6]; H&E staining of lung tissue): thinner | collagen fibers in lung tissue ([6]; M-T staining of lung tissue): decrease
